These are yes or no findings as the source states them, for the method shown. In cells and extracts the contact can be indirect. Some results given as binding are weak or reduced against the parent protein; the word gives no strength. Where a sequence is shown, tags or fusion partners need not be part of it.
T1: Pbp1-myc (S. cerevisiae) (UniProt P53297)
T1 sequence: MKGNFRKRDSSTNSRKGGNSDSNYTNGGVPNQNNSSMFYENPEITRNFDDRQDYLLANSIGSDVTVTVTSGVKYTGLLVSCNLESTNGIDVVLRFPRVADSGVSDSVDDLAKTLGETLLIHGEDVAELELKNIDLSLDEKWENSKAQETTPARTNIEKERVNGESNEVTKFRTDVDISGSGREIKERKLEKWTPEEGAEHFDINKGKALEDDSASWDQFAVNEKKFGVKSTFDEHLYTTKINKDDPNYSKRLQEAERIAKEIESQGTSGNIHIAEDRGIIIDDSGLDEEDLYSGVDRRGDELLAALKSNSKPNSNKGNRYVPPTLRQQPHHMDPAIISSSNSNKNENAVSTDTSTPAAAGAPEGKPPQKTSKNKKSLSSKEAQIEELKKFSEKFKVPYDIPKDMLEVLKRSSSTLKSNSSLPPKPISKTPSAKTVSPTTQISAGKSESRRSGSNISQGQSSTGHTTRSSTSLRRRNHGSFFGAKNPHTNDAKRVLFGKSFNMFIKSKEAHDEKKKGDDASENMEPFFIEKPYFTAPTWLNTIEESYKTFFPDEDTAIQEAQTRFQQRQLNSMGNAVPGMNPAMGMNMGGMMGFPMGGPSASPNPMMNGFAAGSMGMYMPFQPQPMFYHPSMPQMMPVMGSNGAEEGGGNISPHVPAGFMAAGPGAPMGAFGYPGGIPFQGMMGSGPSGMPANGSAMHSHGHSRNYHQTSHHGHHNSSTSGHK

Sequences of proteins named here, by UniProt entry; tags and fusion partners are left off.
UniProt P04147: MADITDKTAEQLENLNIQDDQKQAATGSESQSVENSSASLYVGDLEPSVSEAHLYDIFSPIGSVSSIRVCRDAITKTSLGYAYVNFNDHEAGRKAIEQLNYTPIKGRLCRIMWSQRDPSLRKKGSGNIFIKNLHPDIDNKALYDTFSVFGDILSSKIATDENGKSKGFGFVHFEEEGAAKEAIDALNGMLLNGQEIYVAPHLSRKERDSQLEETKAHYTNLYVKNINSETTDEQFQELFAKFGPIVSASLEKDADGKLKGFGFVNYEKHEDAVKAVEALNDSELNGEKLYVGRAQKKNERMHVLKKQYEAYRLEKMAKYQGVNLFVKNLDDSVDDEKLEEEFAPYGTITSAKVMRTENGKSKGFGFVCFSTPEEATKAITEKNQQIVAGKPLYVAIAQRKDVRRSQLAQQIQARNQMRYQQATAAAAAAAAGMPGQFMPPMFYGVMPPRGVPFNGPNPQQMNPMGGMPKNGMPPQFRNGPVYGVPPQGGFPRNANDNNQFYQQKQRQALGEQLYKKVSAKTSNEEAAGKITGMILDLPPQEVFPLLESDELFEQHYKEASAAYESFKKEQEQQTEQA

B1: eIF4E (protein, UniProt P07260 1-213)
chain: MSVEEVSKKFEENVSVDDTTATPKTVLSDSAHFDVKHPLNTKWTLWYTKPAVDKSESWSDLLRPVTSFQTVEEFWAIIQNIPEPHELPLKSDYHVFRNDVRPEWEDEANAKGGKWSFQLRGKGADIDELWLRTLLAVIGETIDEDDSQINGVVLSIRKGGNKFALWTKSEDKEPLLRIGGKFKQVLKLTDDGHLEFFPHSSANGRHPQPSITL
B2: Scp160 (protein, UniProt P06105 1-1222)
chain: MSEEQTAIDSPPSTVEGSVETVTTIDSPSTTASTIAATAEEHPQLEKKPTPLPSLKDLPSLGSNAAFANVKVSWGPNMKPAVSNSPSPSPSAPSLTTGLGAKRMRSKNIQEAFTLDLQSQLSITKPELSRIVQSVKKNHDVSVESTLSKNARTFLVSGVAANVHEAKRELVKKLTKPINAVIEVPSKCKASIIGSGGRTIREISDAYEVKINVSKEVNENSYDEDMDDTTSNVSLFGDFESVNLAKAKILAIVKEETKNATIKLVVEDEKYLPYIDVSEFASDEGDEEVKVQFYKKSGDIVILGPREKAKATKTSIQDYLKKLASNLDEEKVKIPSKFQFLIDAEELKEKYNVIVTFPSTPDDELVSFVGLRDKVGEAITYARSSSKSYVVESLDISKAHSKNLTHAKNLIMYFTKYSVLKGLEESHPNVKISLPSIQSLPTAETVTIHISAKSDEANDIKAVRKELISFVNNIPPSETLVITDLDYELFGGSIKHCLLASESSVAFVQFGDYYPNDNSILLVALTEDEDFKPSIEEIQASLNKANESLNSLRTKQNNMETKTYEFSEEVQDSLFKPSSATWKLIMEDISEQEGHLQIKLHTPEENQLTVRGDEKAAKAANKIFESILNSPSSKSKMTVNIPANSVARLIGNKGSNLQQIREKFACQIDIPNEENNNASKDKTVEVTLTGLEYNLTHAKKYLAAEAKKWADIITKELIVPVKFHGSLIGPHGTYRNRLQEKYNVFINFPRDNEIVTIRGPSRGVNKAHEELKALLDFEMENGHKMVINVPAEHVPRIIGKNGDNINDIRAEYGVEMDFLQKSTDPKAQETGEVELEITGSRQNIKDAAKRVESIVAEASDFVTEVLKIDHKYHKSIVGSGGHILREIISKAGGEEIRNKSVDIPNADSENKDITVQGPQKFVKKVVEEINKIVKDAENSVTKTIDIPAERKGALIGPGGIVRRQLESEFNINLFVPNKDDPSGKITITGAPENVEKAEKKILNEIIRENFDREVDVPASIYEYVSERGAFIQKLRMDLSVNVRFGNTSKKANKLARAPIEIPLEKVCGSTEGENAEKTKFTIEEVGAPTSSEEGDITMRLTYEPIDLSSILSDGEEKEVTKDTSNDSAKKEEALDTAVKLIKERIAKAPSATYAGYVWGADTRRFNMIVGPGGSNIKKIREAADVIINVPRKSDKVNDVVYIRGTKAGVEKAGEMVLKSLRR

Biological target: T1, Pbp1-myc (S. cerevisiae)
Assay: co-IP; immunoprecipitation of the myc-tagged bait from the 20,000 g pellet of cross-linked cells, glucose replete and glucose depleted, untagged control strain; Western blot of the fractions

binding, binds:
Pab1 (from UniProt P04147 1-577)
B1
B2

From publication PMC8782181
